Record: PubChem BioAssay AID1259254 (NCATS, 2017)
Aim: 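Finding genes that stop cells copying their DNA twice in one cycle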 (primary screen). System: human HCT116 colorectal cancer cells. Knock-down reagent: single siRNA against human genes. Duration: 3 days. Read-out: 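Imaged Hoechst DNA stain sorts each cell into a cycle phase by DNA amount; per plate, G2 fraction set to 0% for non-targeting and 100% for GMNN siRNA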. Reading the numbers: G2 robust z-score and G2 cells, % of GMNN control: higher = more G2 cells, more excess DNA replication; raw share of cells in G2: higher = larger share of cells with G2 DNA content. Rule for the call: 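An siRNA counts as active if its G2 robust z-score lies at least 5 MADs above the screen median; here such calls match roughly 38% of GMNN control or more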.
Shown is an unselected part of about 59,000 reagents. In the full data, about 1,550 (2.6%) were called active. 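G2 share is only a proxy for re-replication; each gene was hit by three separate siRNAs, and active genes were retested.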 Raw values vary from plate to plate and are shown uncorrected. Entries without a mark were called inactive. The numbers tell different reagents against one gene apart. Not given: the amount of reagent.

| target | siRNA no. | G2 robust z-score | G2 cells, % of GMNN control | raw share of cells in G2 (%) |
| --- | --- | --- | --- | --- |
| TTLL12 (GeneID 23170) | 1 | -0.337 | 0.593 | 5.22 |
| TTLL12 (GeneID 23170) | 2 | 1.15 | 11 | 8.69 |
| TTLL12 (GeneID 23170) | 3 | 0.0762 | 3.5 | 4.48 |
| PODNL1 (GeneID 79883) | 1 | -0.614 | -1.36 | 4.87 |
| PODNL1 (GeneID 79883) | 2 | 0.931 | 9.52 | 8.31 |
| PODNL1 (GeneID 79883) | 3 | 0.295 | 5.04 | 6.02 |
| TOMM20L (GeneID 387990) | 1 | 1 | 10 | 7.2 |
| TOMM20L (GeneID 387990) | 2 | 0.08 | 3.53 | 4.94 |
| TOMM20L (GeneID 387990) | 3 | 0.989 | 9.93 | 8.89 |
| NOTCH2NLA (GeneID 388677) | 1 | 0.879 | 9.15 | 9.86 |
| NOTCH2NLA (GeneID 388677) | 2 | -0.367 | 0.388 | 5.11 |
| NOTCH2NLA (GeneID 388677) | 3 | 0.189 | 4.3 | 5.85 |
| DPYS (GeneID 1807) | 1 | 6.42 (active) | 48.1 | 20.7 |
| DPYS (GeneID 1807) | 2 | -0.561 | -0.979 | 4.61 |
| DPYS (GeneID 1807) | 3 | -0.228 | 1.36 | 5.49 |
| MAP4K4 (GeneID 9448) | 1 | 1.32 | 12.2 | 9.39 |
| MAP4K4 (GeneID 9448) | 2 | 1.49 | 13.5 | 10.1 |
| MAP4K4 (GeneID 9448) | 3 | 0.958 | 9.71 | 6.79 |
| ZNF443 (GeneID 10224) | 1 | 0.497 | 6.46 | 5.68 |
| ZNF443 (GeneID 10224) | 2 | -0.398 | 0.165 | 3.41 |
| ZNF443 (GeneID 10224) | 3 | -0.887 | -3.27 | 4.53 |
| MATCAP2 (GeneID 23366) | 1 | -0.724 | -2.12 | 3.61 |
| MATCAP2 (GeneID 23366) | 2 | 0.2 | 4.38 | 5.84 |
| MATCAP2 (GeneID 23366) | 3 | -0.44 | -0.131 | 3.25 |
| TMED4 (GeneID 222068) | 1 | -0.816 | -2.77 | 3.54 |
| TMED4 (GeneID 222068) | 2 | 1.54 | 13.8 | 9.75 |
| TMED4 (GeneID 222068) | 3 | 0.904 | 9.33 | 10.4 |
| TBX18 (GeneID 9096) | 1 | 6.09 (active) | 45.8 | 21.4 |
| TBX18 (GeneID 9096) | 2 | 0.323 | 5.24 | 6.92 |
| TBX18 (GeneID 9096) | 3 | 3.54 | 27.9 | 14.7 |
| DYNLT3 (GeneID 6990) | 1 | 0.164 | 4.12 | 6.96 |
| DYNLT3 (GeneID 6990) | 2 | -0.137 | 2 | 4.69 |
| DYNLT3 (GeneID 6990) | 3 | 0.681 | 7.76 | 6.09 |
| STEAP2 (GeneID 261729) | 1 | -0.272 | 1.05 | 4.02 |
| STEAP2 (GeneID 261729) | 2 | 1.38 | 12.7 | 7.96 |
| STEAP2 (GeneID 261729) | 3 | -0.471 | -0.343 | 3.16 |
| MGAM2 (GeneID 93432) | 1 | 0.613 | 7.28 | 7.01 |
| MGAM2 (GeneID 93432) | 2 | -0.343 | 0.555 | 3.5 |
| MGAM2 (GeneID 93432) | 3 | -0.403 | 0.133 | 1.86 |
| SAR1B (GeneID 51128) | 1 | 5.61 (active) | 42.4 | 20.1 |
| SAR1B (GeneID 51128) | 2 | -0.855 | -3.05 | 4.57 |
| SAR1B (GeneID 51128) | 3 | 0.697 | 7.87 | 7.15 |
| LINC01098 (GeneID 285501) | 1 | 2.01 | 17.1 | 9.87 |
| LINC01098 (GeneID 285501) | 2 | -0.109 | 2.2 | 3.89 |
| LINC01098 (GeneID 285501) | 3 | -0.877 | -3.2 | 2.29 |
| SLC25A44 (GeneID 9673) | 1 | 0.35 | 5.43 | 5.05 |
| SLC25A44 (GeneID 9673) | 2 | -0.954 | -3.75 | 3.23 |
| SLC25A44 (GeneID 9673) | 3 | -1.06 | -4.52 | 3.49 |

Targets listed so far whose gene name begins with Z or z (3):
| target | siRNA no. | G2 robust z-score | G2 cells, % of GMNN control | raw share of cells in G2 (%) |
| --- | --- | --- | --- | --- |
| ZNF443 (GeneID 10224) | 1 | 0.497 | 6.46 | 5.68 |
| ZNF443 (GeneID 10224) | 2 | -0.398 | 0.165 | 3.41 |
| ZNF443 (GeneID 10224) | 3 | -0.887 | -3.27 | 4.53 |
